No constants are given. Whether binding was seen depends on the method and setting. Binding seen in cells or lysates may run through a third protein. Binding can be weak; no strength is given.

The target in this experiment is α-tubulin. As to the kind of experiment: GST pulldown.

B1: Ldb2 (construct not stated) (protein, mouse, UniProt O55203 1-373, looked up)
chain: MSSTPHDPFYSSPFGPFYRRHTPYMVQPEYRIYEMNKRLQSRTEDSDNLWWDAFATEFFEDDATLTLSFCLEDGPKRYTIGRTLIPRYFSTVFEGGVTDLYYILKHSKESYHNSSITVDCDQCAMVTQHGKPMFTKVCTEGRLILEFTFDDLMRIKTWHFTIRQYRELVPRSILAMHAQDPQVLDQLSKNITRMGLTNFTLNYLRLCVILEPMQELMSRHKTYNLSPRDCLKTCLFQKWQRMVAPPAEPTRQPTTKRRKRKNSTSSTSNSSAGNTTNSAGSKKKTPAASLSLATQVPDVMVVGEPTLMGGEFGDEDERLITRLENTQYDAANGMDDEEDFNNSPALGNNSPWNSKPPATQETKSENAPPQASQ
For the molecule B1, the binding result is recorded as “binds”.

B2: Ldb1 (construct not stated) (protein, mouse, UniProt P70662-3 1-375, looked up)
chain: MLDRDVGPTPMYPPTYLEPGIGRHTPYGNQTDYRIFELNKRLQNWTEECDNLWWDAFTTEFFEDDAMLTITFCLEDGPKRYTIGRTLIPRYFRSIFEGGATELYYVLKHPKEAFHSNFVSLDCDQGSMVTQHGKPMFTQVCVEGRLYLEFMFDDMMRIKTWHFSIRQHRELIPRSILAMHAQDPQMLDQLSKNITRCGLSNSTLNYLRLCVILEPMQELMSRHKTYSLSPRDCLKTCLFQKWQRMVAPPAEPARQQPSKRRKRKMSGGSTMSSGGGNTNNSNSKKKSPASTFALSSQVPDVMVVGEPTLMGGEFGDEDERLITRLENTQFDAANGIDDEDSFNNSPALGANSPWNSKPPSSQESKSENPTSQASQ
As to B2, the binding entry was “no binding”.

The values are drawn from patent US20090081195A1, “Inhibitors of Ste20-like Kinase (SLK) and Methods of Modulating Cell Cycle Progression and Cell Motility” (OTTAWA HEALTH RESEARCH INSTITUTE, priority 2005, published 2009).
